# Source: paper doi:10.1101/2021.05.09.443305
# T1: protein phosphatase 1 regulatory inhibitor subunit 14C (human (endogenous in SUM159PT)) (UniProt Q8TAE6)
# T1 sequence: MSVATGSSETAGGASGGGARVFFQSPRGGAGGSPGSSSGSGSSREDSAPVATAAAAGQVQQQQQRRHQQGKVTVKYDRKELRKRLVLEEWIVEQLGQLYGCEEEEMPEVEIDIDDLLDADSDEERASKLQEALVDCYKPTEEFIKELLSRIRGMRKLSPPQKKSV
# B1: protein phosphatase 1 regulatory inhibitor subunit 14C (protein, UniProt Q8TAE6 1-165)
# chain: T1 sequence
# Experiments:
# [1] = target: T1, protein phosphatase 1 regulatory inhibitor subunit 14C (human (endogenous in SUM159PT)); assay: co-IP
# [2] = target: type 1 Ser/Thr protein phosphatase (human (endogenous in SUM159PT)); assay: co-IP
molecule,measurement,setting,value
type 1 Ser/Thr protein phosphatase (human (endogenous in SUM159PT)) (enzyme),binding,[1],binds
B1,binding,[2],binds

# These are yes or no findings as the source states them, for the method shown. In cells and extracts the contact can be indirect. Binding can be weak; no strength is given.
